The results in this text go back to patent publication US6979686B1, “Substituted pyrazoles as p38 kinase inhibitors” (Pharmacia Corporation, priority 2001, dated 2005).

Sequences of proteins named here, by UniProt entry; tags and fusion partners are left off.
UniProt Q16539, whole entry: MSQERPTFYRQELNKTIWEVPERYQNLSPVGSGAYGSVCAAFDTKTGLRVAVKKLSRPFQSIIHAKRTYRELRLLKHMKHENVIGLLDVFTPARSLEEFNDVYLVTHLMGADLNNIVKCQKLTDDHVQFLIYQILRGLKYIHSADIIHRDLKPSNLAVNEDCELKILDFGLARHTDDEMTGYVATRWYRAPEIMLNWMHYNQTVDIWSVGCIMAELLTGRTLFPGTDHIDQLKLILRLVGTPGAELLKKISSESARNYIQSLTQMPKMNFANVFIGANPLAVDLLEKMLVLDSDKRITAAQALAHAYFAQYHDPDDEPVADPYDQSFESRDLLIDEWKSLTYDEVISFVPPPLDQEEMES

The test system of assay [1] is TNF-α, U937 human histiocytic lymphoma cell line. The assay can be described thus: LPS stimulation of TNF production by U937 cells. The assay is classed as cell-based. Conditions: read-out: U937 Cell IC50, human U937 cells stimulated with LPS.
For another assay, the target named is human p38 kinase alpha (Homo sapiens, UniProt Q16539). Nature of the assay: p38 kinase in vitro assay, phosphorylation of biotinylated PHAS-I with 32P-ATP. The assay is classed as biochemical. The following applies: read-out: P38 alpha kinase IC50.

Structures were worked out from names or drawings and are uncertain.

For the molecule `CN(C)C(=O)NCc1[nH]nc(-c2ccc(F)cc2)c1-c1ccncc1`, the concentration for half-maximal inhibition (IC50) in assay [1] was above 1000 nM; at human p38 kinase alpha, 560 nM.

One may read the IC50 as the concentration that gives 50% inhibition.
